Key:
[1] = Nickel extraction yield versus extraction time, chloroform extractant, in presence of iron (III) (Example X, Comparative Experiment III); conditions: pH 1.5, 30° C
Text: (§1) To be successful in application to commercial nickel extraction processes, the ligands must be able to complex with the nickel values both rapidly and completely. The rate of transfer of nickel values from an aqueous to organic phase in such an extraction process is conventionally expressed in terms of "extraction yield," which is defined by means of the following illustration. When an aqueous solution containing nickel values has been contacted, with agitation, for a period of, say, "t" minutes with the organic extractant, a sample is drawn from the mixture while agitation is continued. This sample is allowed to separate into an aqueous phase and an organic phase and the nickel content of the organic phase--indicated as "a" mg Ni/l--is determined. When, after prolonged agitation of the aqueous layer with the organic solution, equilibrium has been reached, the mixture is separated into an aqueous phase and an organic phase and the nickel content of the organic phase and an organic phase and the nickel content of the organic phase--indicated as "b" mg Ni/l--is determined. The extraction yield after t minutes' agitation, expressed as a percentage, is defined as
(§2) The stirrer speed was 2000 revolutions per minute.
Temperature of the batch extraction was held at 30° C. The general procedures of Examples VI-IX were otherwise followed. Table IV presents the results of Example X and of Comparative Experiment III, carried out in the same general manner but utilizing dioxime A.

[2] = Nickel extraction yield versus extraction time, toluene extractant (Examples VI-IX, Comparative Experiment II); conditions: pH 3.0, 50° C
Text: as §1, §2
The temperature was kept at 50° C. At various time intervals a sample was drawn from the mixture while stirring was continued. After separation of the layers of the sample, the nickel content of the organic layer was determined. When stirring had been continued for a total of two hours, the mixture was taken to be in equilibrium and stirring was stopped. The two phases in the vessel were allowed to separate and the nickel content of the organic phase was determined, followed by calculation of the extraction yield.
Four mixtures of dioximes were tested in this manner.

CCCCCCCC(=NO)C(CCCCCCC)=NO [Dioxime A, 8,9-hexadecanedione dioxime]
Extraction yield ([1]; 1 min): 3% | Extraction yield ([1]; 2 min): 5% | Extraction yield ([1]; 3 min): 7% | Extraction yield ([1]; 4 min): 9% | Extraction yield ([1]; 5 min): 11% | Extraction yield ([1]; 10 min): 19% | Extraction yield ([1]; 15 min): 27% | Extraction yield ([1]; 30 min): 49% | Extraction yield ([2]; 0.5 min): 5% | Extraction yield ([2]; 1.0 min): 9% | Extraction yield ([2]; 1.5 min): 13% | Extraction yield ([2]; 2.0 min): 17% | Extraction yield ([2]; 3.0 min): 23% | Extraction yield ([2]; 5.0 min): 33% | Extraction yield ([2]; 10.0 min): 54%
